This note sets out measurements from article doi:10.1101/2020.12.28.424500.

No constants are given. Whether binding was seen depends on the method and setting. In cells and extracts the contact can be indirect. Some results given as binding are weak or reduced against the parent protein; the word gives no strength. For some assays here: Where a sequence is shown, tags or fusion partners need not be part of it.

The target of test [1] is T1, C-terminal fragment of YFP fused with VAMP721 (Arabidopsis thaliana) (UniProt Q9ZTW3).
T1 sequence: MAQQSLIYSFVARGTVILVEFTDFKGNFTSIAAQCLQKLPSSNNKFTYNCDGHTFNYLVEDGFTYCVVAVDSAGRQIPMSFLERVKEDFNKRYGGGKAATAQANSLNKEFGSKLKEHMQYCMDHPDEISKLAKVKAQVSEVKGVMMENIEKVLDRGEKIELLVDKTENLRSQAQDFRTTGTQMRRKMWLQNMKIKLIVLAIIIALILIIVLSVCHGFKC
Kind of test: split reporter.

The target of test [2] is C-terminal fragment of YFP fused with VAMP727 (Arabidopsis thaliana) (UniProt Q9M376). Kind of test: split reporter.
Test [3] deals with T2, TagRFP-VAMP727 (Arabidopsis thaliana) (UniProt Q9M376).
T2 sequence: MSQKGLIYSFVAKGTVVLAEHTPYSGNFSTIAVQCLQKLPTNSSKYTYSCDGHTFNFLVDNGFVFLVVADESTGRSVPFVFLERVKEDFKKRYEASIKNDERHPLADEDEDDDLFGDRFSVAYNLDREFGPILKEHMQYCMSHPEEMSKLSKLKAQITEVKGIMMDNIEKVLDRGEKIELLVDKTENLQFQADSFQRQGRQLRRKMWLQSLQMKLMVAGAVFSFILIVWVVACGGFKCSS
The test can be described thus: co-IP.

Take “N-terminal fragment of YFP fused with SYP123 (from UniProt Q9ZQZ8 1-305)”: the binding entry in test [1] and in test [2] was “binds” in each case.

B1: N-terminal fragment of YFP fused with SYP132 (protein, UniProt Q8VZU2 1-304)
chain: MNDLLKGSFELPRGQSSREGDVELGEQQGGDQGLEDFFKKVQVIDKQYDKLDKLLKKLQASHEESKSVTKAPAMKAIKKTMEKDVDEVGSIARFIKGKLEELDRENLANRQKPGCAKGSGVDRSRTATTLSLKKKLKDKMAEFQVLRENIQQEYRDVVDRRVYTVTGERADEDTIDELIETGNSEQIFQKAIQEQGRGQVMDTLAEIQERHDAVRDLEKKLLDLQQIFLDMAVLVDAQGEMLDNIESQVSSAVDHVQSGNTALQRAKSLQKNSRKWMCIAIIILLIVVAVIVVGVLKPWKNKSA
On to B1, for which the binding entry in test [1] is recorded as “binds”.

B2: GFP-SYP132 (protein, UniProt Q8VZU2 1-304)
chain: MNDLLKGSFELPRGQSSREGDVELGEQQGGDQGLEDFFKKVQVIDKQYDKLDKLLKKLQASHEESKSVTKAPAMKAIKKTMEKDVDEVGSIARFIKGKLEELDRENLANRQKPGCAKGSGVDRSRTATTLSLKKKLKDKMAEFQVLRENIQQEYRDVVDRRVYTVTGERADEDTIDELIETGNSEQIFQKAIQEQGRGQVMDTLAEIQERHDAVRDLEKKLLDLQQIFLDMAVLVDAQGEMLDNIESQVSSAVDHVQSGNTALQRAKSLQKNSRKWMCIAIIILLIVVAVIVVGVLKPWKNKSA
Consider B2, for which the binding result in test [3] was “no binding”.

B3: GFP-SYP123 (protein, UniProt Q9ZQZ8 1-305)
chain: MNDLISSSFKRYTDLNHQVQLDDIESQNVSLDSGNLDEFFGYVESVKEDMKAVDEIHKRLQDANEESKTVHDSKAVKKLRARMDSSVTEVLKRVKMIKTKLVALEKSNAAQRKVAGCGPGSSADRTRTSVVSGLGKKLKDMMDDFQRLRTKMATEYKETVERRYFTVTGQKADEETVEKLISSGESERFLQKAIQEQGRGQVMDTLSEIQERHDTVKEIERSLLELHQVFLDMAALVEAQGNMLNDIESNVSKASSFVMRGTDQLHGAKVLQRNNRKWACIATILAIVVVIVILFPILFNTLLRP
B3: the binding entry in test [3] is “binds”.
